Test results as given in paper PMC8313134.
Results are given in words; binding and its absence hold for the method and conditions named. Binding seen in cells or lysates may run through a third protein. Binding calls can cover weak binding; strength is not graded here.

The chains behind the UniProt entries cited, without tags or fusion partners. Where a name states a change or a piece, a line headed by the entry shows the natural chain unless it says otherwise.
UniProt M4IWN3: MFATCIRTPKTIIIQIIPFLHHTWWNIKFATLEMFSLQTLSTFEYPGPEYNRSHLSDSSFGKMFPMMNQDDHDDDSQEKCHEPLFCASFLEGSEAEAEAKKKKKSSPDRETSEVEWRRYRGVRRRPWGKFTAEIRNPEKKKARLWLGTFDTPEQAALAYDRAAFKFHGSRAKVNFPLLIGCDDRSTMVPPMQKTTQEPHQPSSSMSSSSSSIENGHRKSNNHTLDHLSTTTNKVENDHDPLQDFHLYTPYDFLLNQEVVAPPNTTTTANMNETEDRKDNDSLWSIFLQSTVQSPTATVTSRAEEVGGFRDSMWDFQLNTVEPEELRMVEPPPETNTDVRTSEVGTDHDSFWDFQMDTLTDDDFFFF

Target: AaTCP15-nYFP (Artemisia annua)
Assay: split reporter; BiFC: AaTCP15-nYFP and AaORA-cYFP transiently co-expressed in N. benthamiana leaf cells; YFP fluorescence by confocal microscopy, nuclei stained with DAPI

- binding: binds
Substance: AaORA-cYFP (from UniProt M4IWN3)
